Patent US20070129288A1 (BAYER HEALTHCARE AG, priority 2002, published 2007)

Assay: general procedure: solution-phase peptide synthesis; HATU / N,N-diisopropylethylamine
Conditions: late stage modification step, dihydrochloride

In the case of “N-{[(8S,11S,14S)-14-Amino-11-[(2R)-3-amino-2-hydroxypropyl]-5,17-dihydroxy-10,13-dioxo-9,12-diazatricyclo[14.3.1.1^2,6]henicosa-1(20),2(21),3,5,16,18-hexaen-8-yl]carbonyl}-L-phenylalanine dihydrochloride”, the step yield is reported as 28% of theory.
